Assay [1] addresses T1, USP1 (co-AP and co-IP assays) (human) (UniProt O94782).
T1 sequence: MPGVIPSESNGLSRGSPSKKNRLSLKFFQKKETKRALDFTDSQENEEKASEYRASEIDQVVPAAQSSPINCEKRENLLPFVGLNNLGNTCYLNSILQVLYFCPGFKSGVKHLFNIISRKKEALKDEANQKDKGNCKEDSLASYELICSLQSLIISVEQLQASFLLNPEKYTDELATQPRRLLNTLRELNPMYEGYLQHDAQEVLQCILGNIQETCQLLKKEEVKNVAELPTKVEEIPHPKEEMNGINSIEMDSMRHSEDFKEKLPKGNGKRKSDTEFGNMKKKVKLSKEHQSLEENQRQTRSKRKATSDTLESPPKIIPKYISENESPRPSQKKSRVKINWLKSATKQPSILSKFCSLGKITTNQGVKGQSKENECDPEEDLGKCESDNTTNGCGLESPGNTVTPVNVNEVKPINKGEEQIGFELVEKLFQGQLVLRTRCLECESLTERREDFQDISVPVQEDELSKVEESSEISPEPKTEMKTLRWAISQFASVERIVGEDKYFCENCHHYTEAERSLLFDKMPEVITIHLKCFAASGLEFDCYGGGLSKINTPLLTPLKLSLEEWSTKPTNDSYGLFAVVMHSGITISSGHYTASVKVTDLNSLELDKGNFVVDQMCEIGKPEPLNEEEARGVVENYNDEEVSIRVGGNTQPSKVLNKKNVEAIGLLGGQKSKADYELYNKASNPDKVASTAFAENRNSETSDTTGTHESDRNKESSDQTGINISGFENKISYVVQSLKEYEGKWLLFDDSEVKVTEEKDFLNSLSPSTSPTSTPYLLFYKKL
Description: pull-down + co-IP; co-affinity purification on sepharose beads from lysates of transfected HEK293/HeLa cells (50 mM Tris-HCl pH 7.5, 100 to 150 mM NaCl, 0.5% NP-40, 1 mM EDTA) and endogenous co-IP in NETN buffer with 100 to 350 mM NaCl; which was used for which pair is in Additional file 7.

Chains of the proteins cited; added tags and fusions are not shown.
UniProt O96017: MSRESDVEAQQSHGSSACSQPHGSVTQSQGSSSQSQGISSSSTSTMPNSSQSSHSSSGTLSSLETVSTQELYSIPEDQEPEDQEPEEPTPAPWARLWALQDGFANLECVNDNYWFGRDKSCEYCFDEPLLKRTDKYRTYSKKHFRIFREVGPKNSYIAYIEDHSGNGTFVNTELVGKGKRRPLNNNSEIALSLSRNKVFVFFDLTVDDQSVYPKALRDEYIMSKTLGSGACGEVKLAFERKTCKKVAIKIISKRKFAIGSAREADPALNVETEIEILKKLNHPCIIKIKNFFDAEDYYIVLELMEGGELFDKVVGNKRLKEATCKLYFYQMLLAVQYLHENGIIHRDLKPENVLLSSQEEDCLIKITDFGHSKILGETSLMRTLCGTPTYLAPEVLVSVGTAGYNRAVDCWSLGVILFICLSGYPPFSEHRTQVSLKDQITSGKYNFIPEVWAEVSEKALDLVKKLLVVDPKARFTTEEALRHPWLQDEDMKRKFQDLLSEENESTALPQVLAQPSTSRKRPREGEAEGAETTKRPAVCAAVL
UniProt P52294: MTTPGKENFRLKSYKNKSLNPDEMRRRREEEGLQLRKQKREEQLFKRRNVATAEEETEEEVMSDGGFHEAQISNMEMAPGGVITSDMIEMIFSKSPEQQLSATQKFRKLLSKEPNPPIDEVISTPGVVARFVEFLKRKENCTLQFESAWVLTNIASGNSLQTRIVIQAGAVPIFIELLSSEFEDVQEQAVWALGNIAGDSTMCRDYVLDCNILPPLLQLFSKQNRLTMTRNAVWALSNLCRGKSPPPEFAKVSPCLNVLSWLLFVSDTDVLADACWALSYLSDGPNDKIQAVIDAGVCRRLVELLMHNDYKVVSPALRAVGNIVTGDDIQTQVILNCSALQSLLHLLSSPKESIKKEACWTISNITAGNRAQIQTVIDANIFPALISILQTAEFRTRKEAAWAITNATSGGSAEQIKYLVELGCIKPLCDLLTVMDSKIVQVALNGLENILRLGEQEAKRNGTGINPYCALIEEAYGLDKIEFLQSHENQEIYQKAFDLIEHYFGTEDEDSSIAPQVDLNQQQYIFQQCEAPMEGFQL
UniProt P19838: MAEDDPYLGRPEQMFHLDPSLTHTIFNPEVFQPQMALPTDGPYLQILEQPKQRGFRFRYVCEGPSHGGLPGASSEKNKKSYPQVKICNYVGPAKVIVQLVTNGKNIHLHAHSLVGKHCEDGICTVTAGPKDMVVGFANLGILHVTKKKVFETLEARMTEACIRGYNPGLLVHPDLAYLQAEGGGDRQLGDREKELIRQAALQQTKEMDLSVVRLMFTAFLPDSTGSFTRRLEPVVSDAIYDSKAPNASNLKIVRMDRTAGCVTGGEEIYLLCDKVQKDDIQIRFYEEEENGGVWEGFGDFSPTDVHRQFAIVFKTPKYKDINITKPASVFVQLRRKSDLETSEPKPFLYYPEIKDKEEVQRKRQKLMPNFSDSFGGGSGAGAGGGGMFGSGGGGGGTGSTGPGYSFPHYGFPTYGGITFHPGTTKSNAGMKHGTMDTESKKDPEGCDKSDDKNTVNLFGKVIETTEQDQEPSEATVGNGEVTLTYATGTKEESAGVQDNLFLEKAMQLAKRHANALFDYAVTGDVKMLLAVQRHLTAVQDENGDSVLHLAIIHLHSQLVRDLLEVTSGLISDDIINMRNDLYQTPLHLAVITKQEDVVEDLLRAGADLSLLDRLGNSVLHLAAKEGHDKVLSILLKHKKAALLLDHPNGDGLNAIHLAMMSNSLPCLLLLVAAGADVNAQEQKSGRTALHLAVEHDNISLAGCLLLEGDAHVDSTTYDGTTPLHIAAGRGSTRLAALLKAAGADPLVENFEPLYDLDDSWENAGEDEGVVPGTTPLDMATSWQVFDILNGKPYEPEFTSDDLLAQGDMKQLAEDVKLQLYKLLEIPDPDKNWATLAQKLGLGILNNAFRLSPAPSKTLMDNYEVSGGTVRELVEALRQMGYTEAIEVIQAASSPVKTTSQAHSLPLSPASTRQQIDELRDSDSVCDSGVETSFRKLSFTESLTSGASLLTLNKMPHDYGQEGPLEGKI
UniProt Q9UBU8: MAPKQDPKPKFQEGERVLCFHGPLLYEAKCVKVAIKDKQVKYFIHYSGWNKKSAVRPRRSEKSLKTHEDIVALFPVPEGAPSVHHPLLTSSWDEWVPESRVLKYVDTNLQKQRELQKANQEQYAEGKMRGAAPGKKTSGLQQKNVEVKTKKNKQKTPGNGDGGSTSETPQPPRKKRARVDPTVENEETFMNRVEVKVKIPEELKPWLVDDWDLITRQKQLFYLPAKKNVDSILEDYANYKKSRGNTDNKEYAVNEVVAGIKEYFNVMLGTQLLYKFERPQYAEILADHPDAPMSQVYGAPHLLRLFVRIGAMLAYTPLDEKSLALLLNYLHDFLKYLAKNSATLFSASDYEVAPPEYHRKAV
UniProt Q15014: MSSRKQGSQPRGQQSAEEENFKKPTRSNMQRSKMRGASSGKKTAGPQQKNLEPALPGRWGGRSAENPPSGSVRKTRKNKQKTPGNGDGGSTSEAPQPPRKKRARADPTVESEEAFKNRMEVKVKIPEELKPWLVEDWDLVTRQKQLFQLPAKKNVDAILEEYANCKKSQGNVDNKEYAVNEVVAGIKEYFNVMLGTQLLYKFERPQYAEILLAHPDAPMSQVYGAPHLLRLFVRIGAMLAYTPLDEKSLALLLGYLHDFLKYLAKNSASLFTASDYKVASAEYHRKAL

Assay [2] deals with CHEK2 (co-AP and co-IP assays) (human) (UniProt O96017). Described as above.
Assay [3] has as its target T2, PALB2 (co-AP and co-IP assays) (human) (UniProt Q86YC2).
T2 sequence: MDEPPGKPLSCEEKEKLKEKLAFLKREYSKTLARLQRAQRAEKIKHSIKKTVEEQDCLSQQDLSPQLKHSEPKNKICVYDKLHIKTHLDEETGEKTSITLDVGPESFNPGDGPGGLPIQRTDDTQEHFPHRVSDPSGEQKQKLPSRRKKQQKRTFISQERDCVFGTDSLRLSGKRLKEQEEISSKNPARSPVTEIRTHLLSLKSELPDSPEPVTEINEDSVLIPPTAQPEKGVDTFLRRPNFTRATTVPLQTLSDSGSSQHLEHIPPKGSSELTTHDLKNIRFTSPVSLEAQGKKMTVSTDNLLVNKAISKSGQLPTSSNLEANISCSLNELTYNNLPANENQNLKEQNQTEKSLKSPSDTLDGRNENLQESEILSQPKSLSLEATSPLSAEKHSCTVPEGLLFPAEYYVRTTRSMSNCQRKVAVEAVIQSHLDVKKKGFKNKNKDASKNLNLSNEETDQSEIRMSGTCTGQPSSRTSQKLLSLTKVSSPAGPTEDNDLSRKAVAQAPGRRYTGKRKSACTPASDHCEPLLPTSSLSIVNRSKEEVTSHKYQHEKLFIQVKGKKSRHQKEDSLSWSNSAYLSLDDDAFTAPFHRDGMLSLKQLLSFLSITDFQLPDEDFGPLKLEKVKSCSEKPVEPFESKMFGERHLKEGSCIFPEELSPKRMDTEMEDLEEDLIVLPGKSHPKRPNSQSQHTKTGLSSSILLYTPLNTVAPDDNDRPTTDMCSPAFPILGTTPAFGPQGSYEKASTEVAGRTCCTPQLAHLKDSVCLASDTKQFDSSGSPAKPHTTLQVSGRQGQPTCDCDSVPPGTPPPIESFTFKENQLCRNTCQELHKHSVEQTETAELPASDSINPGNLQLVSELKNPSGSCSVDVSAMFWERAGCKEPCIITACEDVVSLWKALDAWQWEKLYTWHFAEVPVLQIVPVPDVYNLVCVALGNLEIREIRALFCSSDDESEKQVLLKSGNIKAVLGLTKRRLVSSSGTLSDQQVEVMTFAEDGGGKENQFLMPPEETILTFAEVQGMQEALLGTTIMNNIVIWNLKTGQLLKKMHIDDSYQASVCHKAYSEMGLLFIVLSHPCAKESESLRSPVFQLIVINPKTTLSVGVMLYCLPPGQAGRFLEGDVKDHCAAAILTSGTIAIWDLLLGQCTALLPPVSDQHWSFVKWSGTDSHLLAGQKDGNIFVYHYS
The assay is described as above.

Assay [4] addresses T2, PALB2 (co-AP and co-IP assays) (human). Description: pull-down; co-affinity purification on sepharose beads from lysates of transfected HEK293/HeLa cells (50 mM Tris-HCl pH 7.5, 100 to 150 mM NaCl, 0.5% NP-40, 1 mM EDTA), 1 hour at 4°C; MRG15 and MRGX and their deletion mutants with PALB2 (Additional file 8).
Assay [5] addresses T3, TOP3A (co-AP and co-IP assays) (human) (UniProt Q13472).
T3 sequence: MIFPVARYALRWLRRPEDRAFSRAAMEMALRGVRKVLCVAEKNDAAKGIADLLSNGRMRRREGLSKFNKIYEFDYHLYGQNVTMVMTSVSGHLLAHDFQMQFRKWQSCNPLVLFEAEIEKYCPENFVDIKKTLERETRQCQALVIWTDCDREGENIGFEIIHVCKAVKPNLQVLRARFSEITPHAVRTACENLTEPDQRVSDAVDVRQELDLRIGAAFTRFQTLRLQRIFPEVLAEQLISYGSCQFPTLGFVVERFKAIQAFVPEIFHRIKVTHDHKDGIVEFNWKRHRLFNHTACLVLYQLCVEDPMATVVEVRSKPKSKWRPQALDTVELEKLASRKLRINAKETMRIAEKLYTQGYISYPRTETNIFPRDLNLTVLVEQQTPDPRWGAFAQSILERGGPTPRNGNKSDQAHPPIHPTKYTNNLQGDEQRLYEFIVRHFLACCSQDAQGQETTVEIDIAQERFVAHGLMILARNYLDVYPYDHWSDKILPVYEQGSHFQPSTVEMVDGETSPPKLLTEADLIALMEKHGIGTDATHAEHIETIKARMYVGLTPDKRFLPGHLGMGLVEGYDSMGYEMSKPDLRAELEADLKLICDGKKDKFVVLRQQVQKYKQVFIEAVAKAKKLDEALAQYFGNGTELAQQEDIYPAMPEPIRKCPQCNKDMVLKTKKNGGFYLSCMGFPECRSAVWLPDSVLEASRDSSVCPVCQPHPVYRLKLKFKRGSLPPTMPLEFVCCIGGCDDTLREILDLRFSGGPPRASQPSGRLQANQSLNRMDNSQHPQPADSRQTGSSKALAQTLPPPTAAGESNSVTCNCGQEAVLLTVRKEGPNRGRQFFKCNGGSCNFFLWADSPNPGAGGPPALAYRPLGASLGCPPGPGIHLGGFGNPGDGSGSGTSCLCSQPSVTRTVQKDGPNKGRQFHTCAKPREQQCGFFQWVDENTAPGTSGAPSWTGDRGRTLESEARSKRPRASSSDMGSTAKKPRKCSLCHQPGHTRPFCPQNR
Description: pull-down + co-IP; co-affinity purification on sepharose beads from lysates of transfected HEK293/HeLa cells (50 mM Tris-HCl pH 7.5, 100 to 150 mM NaCl, 0.5% NP-40, 1 mM EDTA) and endogenous co-IP in NETN buffer with 100 to 350 mM NaCl; which was used for which pair is in Additional file 7.

Results are given in words; binding and its absence hold for the method and conditions named. In cells and extracts the contact can be indirect. Some binding calls cover weakened binding; strength is not graded here.

In the case of “KPNA1 (co-AP and co-IP assays) (from UniProt P52294 1-538)”, the binding result in assay [1] was “binds”.

On to “NFKB1 (co-AP and co-IP assays) (from UniProt P19838 1-968)”, for which the binding entry in assay [2] was “binds”.

Turning to “MRG15 (co-AP and co-IP assays) (from UniProt Q9UBU8 1-362)”, the binding entry in assay [3] is listed as “binds”.

For the molecule MRGX (from UniProt Q15014 1-288), the binding entry in assay [4] is recorded as “binds”.

B1: TSNAX (co-AP and co-IP assays) (protein, UniProt Q99598 1-290)
chain: MSNKEGSGGFRKRKHDNFPHNQRREGKDVNSSSPVMLAFKSFQQELDARHDKYERLVKLSRDITVESKRTIFLLHRITSAPDMEDILTESEIKLDGVRQKIFQVAQELSGEDMHQFHRAITTGLQEYVEAVSFQHFIKTRSLISMDEINKQLIFTTEDNGKENKTPSSDAQDKQFGTWRLRVTPVDYLLGVADLTGELMRMCINSVGNGDIDTPFEVSQFLRQVYDGFSFIGNTGPYEVSKKLYTLKQSLAKVENACYALKVRGSEIPKHMLADVFSVKTEMIDQEEGIS
For B1, the binding result in assay [5] is reported as “binds”.

The values above are taken from publication PMC3219203.
